Test results from PubChem BioAssay AID504467 (National Center for Advancing Translational Sciences (NCATS), 2011).
About 7,700 (2.3%) of roughly 330,000 compounds were called active. This list was built around the results that the source calls inconclusive (neither active nor inactive); the mix of calls is not that of the screen. Calls come from the whole dose curve; as a rule, active = well fitted inhibition curve with a large enough effect; inconclusive = small, poorly fitted or top-dose-only effect, or effect the other way; inactive = flat fitted curve, though single readings scatter. Potencies beside an inconclusive call are fits to weak or partial responses and may not hold up.

Experiment: qHTS screen for small molecules that inhibit ELG1-dependent DNA repair in human embryonic kidney (HEK293T) cells expressing luciferase-tagged ELG1; note: nearly all actives have a fitted effect of over 55% in size
Details: HEK293T ELG1-luciferase reporter, luminescence, 16 h, DNA damage induced by 5-fluorouridine; activity change, negative = inhibition: at 46.1 µM (top of the series)
Summary of the method: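 Cells (2,000 per well) received 5-fluorouridine plus test compound or DMSO and were incubated 16 hr at 37 °C, 5% CO2. Luciferase activity was read by luminescence 30 min after ONE-Glo addition; signal suppression marked inhibition of damage-induced ELG1 function.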
% is set by controls: 0 for no effect and ±100 for the full control effect; potency is the fitted concentration of half-maximal effect.

Compound	activity change, negative = inhibition	Potency
c1ccc(C2=Nn3c(nnc3-c3cccs3)SC2)cc1	inactive: 12.6%	–
COc1ccccc1N1CCN(C/C(O)=C(\C#N)c2nc(-c3ccccc3)cs2)CC1	–	inconclusive: 20.6 µM [inhibitor, single point]
COc1cccc(NC(=O)c2c(F)cccc2F)c1	–	inconclusive: 8.2 µM [activator, partial curve, poor fit]
Cc1ccc2cccc(OCC(=O)Nc3ccc4c(c3)OCO4)c2n1	–	inconclusive: 18.3 µM [inhibitor, single point]
COCc1ccc(C(=O)NC2CCCc3c2cnn3-c2ccc(C)c(C)c2)o1 (configuration not stated)	–	inconclusive: 8.2 µM [inhibitor, partial curve, poor fit]
O=c1c2[nH]c3ccccc3c2nc2n1CCS2	–	inconclusive: 18.3 µM [activator, single point]
COc1ccc(C2CCCN2C(=S)Nc2cccc(Cl)c2)cc1OC (configuration not stated)	–	inconclusive: 18.3 µM [inhibitor, single point]
O=C1OC(Nc2ccc(F)c([N+](=O)[O-])c2)c2ccccc21 (configuration not stated)	inactive: -7.94%	–
CC(=Nc1ccc(C)cc1C)c1sc2ccccc2c1O	–	inconclusive: 2.31 µM [activator, partial curve]
O=C(CCS(=O)(=O)c1ccccc1)N(CCCN1CCOCC1)c1nc2c(F)cccc2s1	–	inconclusive: 25.9 µM [inhibitor, single point]
COc1ccc(OC)c(NC(=O)COc2ccc3c(c2)CCC3)c1	inactive: 14.5%	–
COCCNC(=O)c1ccc(N2CC3CC(C2)c2cccc(=O)n2C3)c(NC(=O)c2ccc(Br)o2)c1 (configuration not stated)	inactive: 10.9%	–
COc1ccc(NC(=O)c2ccc3ncsc3c2)cc1	–	inconclusive: 5.8 µM [activator, partial curve]
O=C(c1ccccc1)N1N=C(c2ccc(F)cc2)CC1(O)C(F)(F)F (configuration not stated)	–	inconclusive: 8.2 µM [inhibitor, partial curve, poor fit]
O=C(c1ccc(N2CCN(C(=O)c3cccc(F)c3)CC2)cc1)c1cccc(F)c1	–	inconclusive: 25.9 µM [inhibitor, partial curve, poor fit]
CCCOc1ccc(N2C(=O)CC(SCCN)C2=O)cc1 (configuration not stated)	–	inconclusive: 7.31 µM [activator, partial curve]
O=C(CN1C(=O)C2CC=CCC2C1=O)NCc1cccs1 (configuration not stated)	–	inconclusive: 0.517 µM [inhibitor, full curve, poor fit]
COc1ccc(CNC(=O)c2ccccc2C(=O)O)cc1	inactive: 4.51%	–
COc1ccc(C(=O)C(=O)c2ccc(OCCO)cc2)cc1	inactive: 12.5%	–
COc1ccc(-c2nc(NC(=O)c3cc(C(C)(C)C)nn3C)sc2C)cc1	–	active: 8.2 µM
O=C1N/C(=C\c2ccccc2)c2ccccc21	inactive: 20.9%	–
Cc1ccc(NC(=O)c2ccc(NCCCN3CCOCC3)c([N+](=O)[O-])c2)cc1Cl	–	active: 18.4 µM
CNNC(=S)NC1CC2CC1C1C=CCC21 (configuration not stated)	–	inconclusive: 2.59 µM [activator, partial curve]

Compounds listed so far with a carbonyl joined to an NH by a bond outside any ring (ten):
Compound	activity change, negative = inhibition	Potency
COc1cccc(NC(=O)c2c(F)cccc2F)c1	–	inconclusive: 8.2 µM [activator, partial curve, poor fit]
Cc1ccc2cccc(OCC(=O)Nc3ccc4c(c3)OCO4)c2n1	–	inconclusive: 18.3 µM [inhibitor, single point]
COCc1ccc(C(=O)NC2CCCc3c2cnn3-c2ccc(C)c(C)c2)o1 (configuration not stated)	–	inconclusive: 8.2 µM [inhibitor, partial curve, poor fit]
COc1ccc(OC)c(NC(=O)COc2ccc3c(c2)CCC3)c1	inactive: 14.5%	–
COCCNC(=O)c1ccc(N2CC3CC(C2)c2cccc(=O)n2C3)c(NC(=O)c2ccc(Br)o2)c1 (configuration not stated)	inactive: 10.9%	–
COc1ccc(NC(=O)c2ccc3ncsc3c2)cc1	–	inconclusive: 5.8 µM [activator, partial curve]
O=C(CN1C(=O)C2CC=CCC2C1=O)NCc1cccs1 (configuration not stated)	–	inconclusive: 0.517 µM [inhibitor, full curve, poor fit]
COc1ccc(CNC(=O)c2ccccc2C(=O)O)cc1	inactive: 4.51%	–
COc1ccc(-c2nc(NC(=O)c3cc(C(C)(C)C)nn3C)sc2C)cc1	–	active: 8.2 µM
Cc1ccc(NC(=O)c2ccc(NCCCN3CCOCC3)c([N+](=O)[O-])c2)cc1Cl	–	active: 18.4 µM

Further structures.

Compound	activity change, negative = inhibition	Potency
Cc1cc(=O)c2ccc3ccccc3c2[nH]1	–	inconclusive: 18.4 µM [inhibitor, partial curve]
Cc1ccccc1NS(=O)(=O)c1ccc(C(=O)N2CCCCCCC2)cc1	inactive: -18.5%	–
CCOC(=O)C1=NN(c2ccccc2)C(=O)C1	–	inconclusive: 29.1 µM [inhibitor, single point]
O=c1cc(CN2CCN(Cc3ccccc3)CC2)c2cc(O)ccc2o1	–	inconclusive: 16.4 µM [inhibitor, single point]
COc1cc(C)ccc1OCC(=O)Nc1ccc2c(c1)OCO2	–	inconclusive: 11.6 µM [activator, partial curve]
O=C(O)c1ccc(CSc2nc(-c3ccccc3)cc(C(F)(F)F)n2)cc1	inactive: -1.23%	–
CN1Cc2c(N3CCOCC3)nc3sc(C(=O)c4ccccc4)c(N)c3c2CC1(C)C	–	inconclusive: 5.8 µM [inhibitor, partial curve, poor fit]
O=S1(=O)c2ccc(Br)cc2N2CCC[C@H]2CN1Cc1ccccc1	–	inconclusive: 3.26 µM [inhibitor, full curve]
CCOC(=O)C(=O)Nc1cccc(C(=O)OCC)c1	inactive: 0.293%	–
COC(=O)CSc1nnc(Cc2ccccc2)n1-c1ccc(C)cc1	–	inconclusive: 13 µM [activator, partial curve]
COc1cc(-c2[nH]nc3c2C(c2ccco2)C(C#N)=C(N)O3)cc(OC)c1OC (configuration not stated)	–	inconclusive: 14.6 µM [activator, partial curve, poor fit]
COc1cc(/C=C2\NC(=S)N(C)C2=O)ccc1O	inactive: 2.83%	–
O=C(NCc1cccnc1)C(=O)Nc1nc(C23CC4CC(CC(C4)C2)C3)cs1	–	inconclusive: 16.4 µM [inhibitor, partial curve]
CN(c1ccc(C(=O)NCc2ccccn2)cc1)S(C)(=O)=O	–	inconclusive: 3.26 µM [activator, partial curve, poor fit]
Nn1c(SCc2ccccc2F)nnc1-c1cccnc1	–	inconclusive: 14.6 µM [activator, partial curve]
CN(C(=O)c1cnc(N2CCN(c3ncccn3)CC2)c2ccccc12)c1ccc(Cl)cc1	–	inconclusive: 29.1 µM [inhibitor, partial curve, poor fit]
COc1ccc(N2CC(C(=O)Nc3nc4ccccc4s3)CC2=O)cc1 (configuration not stated)	–	inconclusive: 20.6 µM [inhibitor, partial curve, poor fit]
C=C1CCC[C@]2(C)C[C@H]3OC(=O)C(CN4CC(C)OC(C)C4)[C@H]3C[C@@H]12 (some centres not stated)	–	inconclusive: 6.51 µM [inhibitor, partial curve, poor fit]
COc1ccc(N(CC(=O)NC(C)C)S(=O)(=O)c2ccc(NC(C)=O)cc2)cc1	–	inconclusive: 29.1 µM [inhibitor, single point]
COC(=O)c1ccc(NC(=O)CN2CCN(c3ccccc3C)CC2)cc1	–	inconclusive: 2.59 µM [inhibitor, full curve]
C[C@H](CO)N1C[C@H](C)[C@@H](CN(C)S(=O)(=O)c2ccc(Cl)cc2)Oc2ccc(NS(=O)(=O)c3ccccc3)cc2CC1=O	inactive: -3.21%	–
COc1cccc(NC(=O)c2nnn(Cc3ccc(Br)cc3F)c2N)c1	–	inconclusive: 18.4 µM [activator, partial curve]
CC(C)(C)N(Cc1ccccc1)C(=O)c1ccc(Cl)cc1[N+](=O)[O-]	–	inconclusive: 14.6 µM [inhibitor, partial curve, poor fit]

Compound	activity change, negative = inhibition	Potency
CCN(CC)CCCNC(=O)CCC(=O)Nc1ccc2nc(N3CCCCC3)cc(C)c2c1	–	inconclusive: 20.6 µM [activator, single point]
Cc1ccc2c(c1)c1ncnc(N3CCC4(CC3)OCCO4)c1n2C	–	inconclusive: 5.8 µM [activator, partial curve]
COC(=O)C(C)N1C(=O)S/C(=C\c2cc(C)n(-c3ccccn3)c2C)C1=O (configuration not stated)	–	inconclusive: 2.59 µM [activator, partial curve]
Brc1ccc(OCc2ccccc2)c(CNCC2CCCO2)c1 (configuration not stated)	inactive: -5.23%	–
CCC(Sc1nc2sc(C(=O)OC)c(C)c2c(=O)n1N)C(=O)N(CC)CC (configuration not stated)	inactive: 3.95%	–
Cc1cc(C)cc(NC(=O)C(=O)NCC2CCCO2)c1 (configuration not stated)	–	inconclusive: 20.6 µM [activator, partial curve]
COc1ccc(C(=O)NCCc2cc3c(OC)ccc(OC)c3[nH]c2=O)cc1OC	–	inconclusive: 14.6 µM [inhibitor, partial curve]
CCC(c1nnnn1Cc1ccc(OC)cc1)N(CCCO)Cc1cc2cc3c(cc2[nH]c1=O)OCO3 (configuration not stated)	–	inconclusive: 23.1 µM [inhibitor, partial curve]
CCCn1c(SCC(=O)Nc2nc(-c3ccc(OC)cc3)cs2)nc2c1c(=O)n(C)c(=O)n2C	–	inconclusive: 5.8 µM [inhibitor, single point]
O=c1o[nH]c(-c2ccccc2)c1N=Nc1c(F)cccc1Cl	–	inconclusive: 11.6 µM [inhibitor, partial curve, poor fit]
O=C(Nc1nc2ccccc2s1)c1cc(-c2ccco2)nc2ccccc12	–	inconclusive: 29.1 µM [inhibitor, single point]
COc1ccc(Nc2nc(N)nc(CSc3nnc(N)s3)n2)cc1	–	inconclusive: 14.6 µM [activator, partial curve]
COc1ccc(CCNC(=O)C2CCCN(c3ncnc4c3nc3n4CCCCC3)C2)c(OC)c1 (configuration not stated)	–	inconclusive: 9.2 µM [inhibitor, partial curve, poor fit]
O=C(COC(=O)c1ccccc1C(=O)c1ccc(Cl)cc1)NCCc1ccccc1	–	inconclusive: 23.1 µM [inhibitor, partial curve, poor fit]
CC(C)N1CCN(Cc2cccn2-c2ccccn2)CC1CCO (configuration not stated)	inactive: 8.89%	–
CCC(=O)N1CCc2cc(S(=O)(=O)NC(Cc3ccccc3)C(=O)O)ccc21 (configuration not stated)	–	inconclusive: 25.9 µM [activator, partial curve, poor fit]
Cn1nc(C(=O)NCCCN2CCCCC2)c2c1-c1ccccc1SC2	inactive: 21.7%	–
O=c1c2c3c(sc2ncn1/N=C/c1cccnc1)CCCC3	inactive: 12.6%	–
COC(=O)c1sccc1NC(=O)Nc1ccc(F)cc1F	–	inconclusive: 10.3 µM [activator, partial curve, poor fit]
CCOc1ccc(CN(C)C(=O)c2ccc3c(c2)NC(=O)C(C)S3)cc1OC (configuration not stated)	–	inconclusive: 25.9 µM [inhibitor, single point]
O=C(CCN1CCOCC1)N/N=C/c1cc(Br)cc(Br)c1O	–	inconclusive: 23.1 µM [inhibitor, single point]

Quoted at random: two compounds from above
Compound	activity change, negative = inhibition	Potency
CC(C)N1CCN(Cc2cccn2-c2ccccn2)CC1CCO (configuration not stated)	inactive: 8.89%	–
COC(=O)C(C)N1C(=O)S/C(=C\c2cc(C)n(-c3ccccn3)c2C)C1=O (configuration not stated)	–	inconclusive: 2.59 µM [activator, partial curve]
